Article PMC12670160, “A drug-repurposing screen of FDA- and EMA-approved drugs identifies two NF-κB inhibitors active against eumycetoma” (Journal of Antimicrobial Chemotherapy, 2025)
Structures can show the parent of a compound that is named as a salt. About 130 (2.5%) of roughly 5,300 compounds showed an effect of 50% or more. The list shows a part of the results. Numbered stars: 1 amine (or outer) side, 2 acyl side, 3 side chain; on linkers, the order of the positions; unused ones are H or OH. Bridge positions count the residues as written; N and C are the ends. Square brackets hold non-standard residues; d marks the D form. Peptide text beside a SMILES is read from it. * marks the point of attachment. hTyr(3S-OH,4S-OH,3'-OSO3H) = N[C@H](C(=O)O)[C@H](O)[C@@H](O)c1ccc(O)c(OS(=O)(=O)O)c1; Orn(4R-OH,5R-OH) = O=C([C@H](C[C@@H](O)[C@@H](O)N[*:3])N[*:1])[*:2]; Pro(3S-OH,4S-Me) = C[C@H]1CN[C@H](C(=O)O)[C@H]1O; X3 = CCCCCOc1ccc(-c2cc(-c3ccc(C(=O)*)cc3)no2)cc1; Gln(3R-OH) = NC(=O)C[C@@H](O)[C@H](N)C(=O)O; Hyp = O=C(O)[C@@H]1C[C@@H](O)CN1

Each molecule was assayed on M. mycetomatis strain mm55. Conditions: primary screen, metabolic activity vs growth control; 96 h, 2 µM; inhibitor.

How did the “% viability” value turn out when `Nc1nc(O)c2ncn(COC(CO)CO)c2n1` [ONC0003983, ganciclovir hydrate] was run?
Its value is 92.25%.

How did the “% viability” value turn out when `C[N+](C)(C)CCCCCCCCCC[N+](C)(C)C` [ONC0003988, decamethonium bromide] was run?
Its value is 53.62%.

`c1ccc2nc(N3CCNCC3)ccc2c1` [ONC0001514, quipazine] was tested. Which “% viability” value did it give?
The value was 69.69%.

For `CC(=O)O[C@]1(C(C)=O)CC[C@H]2[C@@H]3CCC4=CC(=O)CCC4=C3[C@@H](c3ccc(N(C)C)cc3)C[C@@]21C` [ONC0004764, ulipristal acetate], which “% viability” value is on record?
The value was 66.83%.

`CCCCCOc1ccc(-c2cc(-c3ccc(C(=O)N[C@H]4C[C@@H](O)[C@@H](O)NC(=O)[C@@H]5[C@@H](O)[C@@H](C)CN5C(=O)[C@H]([C@H](O)CC(N)=O)NC(=O)[C@H]([C@H](O)[C@@H](O)c5ccc(O)c(OS(=O)(=O)O)c5)NC(=O)[C@@H]5C[C@@H](O)CN5C(=O)[C@H]([C@@H](C)O)NC4=O)cc3)no2)cc1` [ONC0002269, micafungin sodium] (X3-[Orn(4R-OH,5R-OH)]T[Hyp][hTyr(3S-OH,4S-OH,3'-OSO3H)][Gln(3R-OH)][Pro(3S-OH,4S-Me)]; lactam 1-C) was tested. Which “% viability” value did it give?
Its value is 64.37%.

How did the “% viability” value turn out when `CC(C)(COP(=O)(O)OP(=O)(O)OC[C@H]1O[C@@H](n2cnc3c(N)ncnc32)[C@H](O)[C@@H]1OP(=O)(O)O)[C@@H](O)C(=O)NCCC(=O)NCCS` [ONC0003793, coenzymea] was run?
Its value is 73.65%.

With `CC(C)OC(=O)Nc1cccc(Cl)c1` [ONC0005285, chlorpropham] as the molecule, how does the “% viability” value read?
The value was 93.59%.

Which “% viability” value does the source give for `CCCCc1nc2cc(/C=C/C(=O)NO)ccc2n1CCN(CC)CC` [ONC0004854, sb939 pracinostat] here?
Its value is 97.96%.

Which “% viability” value does the source give for `O=C(O)/C=C/c1ccc(O)c(O)c1` [ONC0004666, caffeic acid] here?
Its value is 113%.

`CC1(C)CC(=O)c2c(C(F)(F)F)nn(-c3ccc(C(N)=O)c(N[C@H]4CC[C@H](O)CC4)c3)c2C1` [ONC0005078, snx2112] was tested. Which “% viability” value did it give?
The value was 82.8%.

For `O=C(Nc1cc(C(F)(F)F)cc(C(F)(F)F)c1)c1cnc(Cl)nc1C(F)(F)F` [ONC0001396, sp100030], which “% viability” value is on record?
Its value is 126.3%.

How did the “% viability” value turn out when `COc1cc2nc(N(C)CCCNC(=O)C3CCCO3)nc(N)c2cc1OC` (stereo not drawn) [ONC0005522, alfuzosin hydrochloride] was run?
Its value is 118.4%.

How did the “% viability” value turn out when `Clc1ccc(Cn2c(CN3CCCC3)nc3ccccc32)cc1` [ONC0003977, clemizole hydrochloride] was run?
Its value is 58.3%.

For `CNCCn1c(=O)c2cc(OC)c(OC)cc2c2cnc3cc4c(cc3c21)OCO4` [ONC0000973, genz644282], which “% viability” value is on record?
The value was 79.82%.

With `Oc1ccc2ccccc2c1SSc1c(O)ccc2ccccc12` [ONC0002579, ipa3] as the molecule, how does the “% viability” value read?
Its value is 67.38%.

How did the “% viability” value turn out when `CCN(CC)c1ccc(C(=C2C=CC(=[N+](CC)CC)C=C2)c2ccccc2)cc1` [ONC0002765, brilliant green] was run?
Its value is 123.8%.

`COc1cc(C[C@@H](CO[C@@H]2O[C@H](CO)[C@@H](O)[C@H](O)[C@H]2O)[C@H](CO[C@@H]2O[C@H](CO)[C@@H](O)[C@H](O)[C@H]2O)Cc2ccc(O)c(OC)c2)ccc1O` [ONC0000280, secoisolariciresinol diglucoside] was tested. Which “% viability” value did it give?
Its value is 88.73%.

Which “% viability” value does the source give for `CCCCCCCCCCCCCCCC(=O)OC[C@@H](NC(=O)C(Cl)Cl)[C@H](O)c1ccc([N+](=O)[O-])cc1` [ONC0000763, chloramphenicol palmitate] here?
The value was 71.55%.

How did the “% viability” value turn out when `CC(C)n1nc(-c2ccc3oc(N)nc3c2)c2c(N)ncnc21` [ONC0005031, ink 128 mln0128] was run?
The value was 118.6%.

With `CN1C[C@@H]2C[C@H]1CN2c1cc2c(cc1F)c(=O)c(C(=O)O)cn2C1CC1` [ONC0004469, danofloxacin mesylate] as the molecule, how does the “% viability” value read?
The value was 127%.

With `CC(C)c1ccc(-c2cc(=O)c3ccccc3o2)cc1` [ONC0001399, mn64] as the molecule, how does the “% viability” value read?
Its value is 92.86%.

For `CC(=O)Nc1nc2c(Oc3cc(-c4ccc(C(F)(F)F)cc4)ncn3)cccc2s1` [ONC0005152, amg517], which “% viability” value is on record?
Its value is 112.5%.

Which “% viability” value does the source give for `O=C(NCC(=O)N1CC[C@H](N[C@H]2CC[C@@](O)(c3ccc(-c4ncccn4)cn3)CC2)C1)c1cccc(C(F)(F)F)c1` [ONC0000949, pf4136309] here?
Its value is 65.66%.

`Oc1ccc(OC2CCCCO2)cc1` (stereo not drawn) [ONC0004709, deoxyarbutin] was tested. Which “% viability” value did it give?
The value was 107.9%.

Which “% viability” value does the source give for `CC(C)(C)c1onc(O)c1CC(N)C(=O)O` (stereo not drawn) [ONC0000802, atpa] here?
The value was 76.03%.

With `O=C(O)CC(O)(CC(=O)O)C(=O)O` [ONC0005429, citricacid] as the molecule, how does the “% viability” value read?
Its value is 123%.

For `COC(=O)C1=C(C)NC(C)=C(C(=O)NCCCN2CCC(c3ccccc3)(c3ccccc3)CC2)C1c1ccc([N+](=O)[O-])cc1` (stereo not drawn) [ONC0003562, snap5089], which “% viability” value is on record?
The value was 140.9%.

Which “% viability” value does the source give for `C[C@]12CC/C(=N\OCCN)C[C@@H]1C(=O)C[C@@H]1[C@@H]2CC[C@]2(C)C(=O)CC[C@@H]12` [ONC0001347, istaroxime hydrochloride] here?
The value was 80.9%.

With `COc1ccc(C(C)(C)C)cc1CN[C@H]1C2CCN(CC2)[C@H]1C(c1ccccc1)c1ccccc1` [ONC0000986, maropitant] as the molecule, how does the “% viability” value read?
The value was 66.63%.

Which “% viability” value does the source give for `COc1cc(O)c(C(=O)c2ccccc2)cc1S(=O)(=O)O` [ONC0004165, sulisobenzone] here?
Its value is 72.74%.

With `Nc1cccc2c1C(=O)N(C1CCC(=O)NC1=O)C2=O` (stereo not drawn) [ONC0004843, pomalidomide] as the molecule, how does the “% viability” value read?
The value was 119.6%.

For `CC(C)=CCC[C@]1(C)C=Cc2c(O)c3c(c(CC=C(C)C)c2O1)O[C@]12C(=C[C@@H]4C[C@H]1C(C)(C)O[C@@]2(C/C=C(/C)C(=O)O)C4=O)C3=O` [ONC0002067, gambogic acid], which “% viability” value is on record?
Its value is 76.73%.

With `O=C1Nc2ccccc2/C1=C1/Nc2ccccc2C1=O` [ONC0004979, indirubin] as the molecule, how does the “% viability” value read?
The value was 137.7%.

For `N=C(N)NC(=O)Cc1c(Cl)cccc1Cl` [ONC0003946, guanfacine hydrochloride], which “% viability” value is on record?
The value was 101.8%.

How did the “% viability” value turn out when `OCC(O)COc1ccc(Cl)cc1` (stereo not drawn) [ONC0002159, chlorphenesin] was run?
Its value is 67.41%.

`Cc1ccc(CC2(O)CCN(CCOc3ccc(O)cc3)CC2)cc1` [ONC0003038, co101244] was tested. Which “% viability” value did it give?
Its value is 108.4%.

With `O=C(O)C(O)Cc1ccc(O)c(O)c1` (stereo not drawn) [ONC0004733, sodium danshensu] as the molecule, how does the “% viability” value read?
Its value is 106.7%.

With `CC(C(=O)O)c1ccc2c(c1)Cc1ccccc1-2` (stereo not drawn) [ONC0003773, cicloprofen] as the molecule, how does the “% viability” value read?
The value was 135.8%.

With `COc1cc(C(=O)O)ccc1NC(=O)[C@@H]1N[C@@H](CC(C)(C)C)[C@](C#N)(c2ccc(Cl)cc2F)[C@H]1c1cccc(Cl)c1F` [ONC0005541, idasanutlin] as the molecule, how does the “% viability” value read?
The value was 130.7%.

How did the “% viability” value turn out when `CC1(C)CCC(C)(C)c2cc(NC(=O)c3ccc(C(=O)O)cc3)ccc21` [ONC0004789, tamibarotene] was run?
The value was 98.3%.

`N[C@@H](Cc1cc(I)c(Oc2cc(I)c(O)c(I)c2)c(I)c1)C(=O)O` [ONC0005615, levothyroxine] was tested. Which “% viability” value did it give?
Its value is 152.7%.

`CN(C)C(=S)SC(=S)N(C)C` [ONC0003360, tetramethylthiuram monosulfide] was tested. Which “% viability” value did it give?
Its value is 61.8%.

For `Cc1cc(C)c(Nc2ccnc(Nc3ccc(C#N)cc3)n2)c(C)c1` [ONC0004833, dapivirine tmc120], which “% viability” value is on record?
Its value is 131.1%.

With `CN(c1ccc(NC(=O)Nc2ccccc2)cc1)S(=O)(=O)c1cnn(-c2ccc(F)cc2)c1` [ONC0000106, btt3033] as the molecule, how does the “% viability” value read?
The value was 71.15%.

How did the “% viability” value turn out when `C[n+]1cc2c3c(ccc2c2ccc4cc5c(cc4c21)OCO5)OCO3` [ONC0003337, sanguinarium chloride] was run?
The value was 90.16%.

With `C[C@@H](NC(=O)c1ncnc(N)c1Cl)c1ncc(C(=O)Nc2cc(C(F)(F)F)c(Cl)cn2)s1` [ONC0000780, tak580] as the molecule, how does the “% viability” value read?
Its value is 67.96%.

How did the “% viability” value turn out when `Nc1ncnc2c1ncn2[C@@H]1O[C@H](CO)[C@@H](O)[C@H]1O` [ONC0000330, adenosine] was run?
Its value is 75.96%.

For `Cc1nn(-c2ccccc2)c(C)c1/C=N/N1CCN(Cc2ccccc2)CC1` [ONC0001753, sant1], which “% viability” value is on record?
The value was 100.3%.

With `O=C(c1ccc(Nc2nccc(-c3cc4ccccc4s3)n2)cc1)N1CCC(N2CCCC2)CC1` [ONC0000238, ikk16] as the molecule, how does the “% viability” value read?
Its value is 83.32%.

Which “% viability” value does the source give for `Clc1ccc(CSC(Cn2ccnc2)c2ccc(Cl)cc2Cl)cc1` (stereo not drawn) [ONC0000678, sulconazole nitrate] here?
Its value is 120.3%.

For `O=C1C[C@@H](c2ccc(O)cc2)Oc2cc(O)ccc21` [ONC0003300, liquiritigenin], which “% viability” value is on record?
The value was 62.96%.

How did the “% viability” value turn out when `CC1(C)S[C@@H]2C(N3C(=O)[C@@H](c4ccccc4)NC3(C)C)C(=O)N2[C@H]1C(=O)O` (stereo partly drawn) [ONC0000520, hetacillin potassium] was run?
The value was 62.89%.

For `O=C1Nc2ccccc2C12OCC1(CO2)COC2(OC1)C(=O)Nc1ccccc12` (stereo not drawn) [ONC0002672, jw67], which “% viability” value is on record?
Its value is 79.91%.

For `C=C[C@H]1C[N@@]2CC[C@H]1C[C@H]2[C@H](O)c1ccnc2ccc(OC)cc12` [ONC0003402, quinine], which “% viability” value is on record?
Its value is 78.04%.

Which “% viability” value does the source give for `O=C(/C=C/c1ccccc1)NC(NC(=S)Nc1cccc2cccnc12)C(Cl)(Cl)Cl` (stereo not drawn) [ONC0001383, salubrinal] here?
Its value is 125.4%.

With `CCCN(CCC)C(=O)Cc1c(-c2ccc(Cl)cc2)nc2ccc(Cl)cn12` [ONC0004067, alpidem] as the molecule, how does the “% viability” value read?
Its value is 111.1%.

For `Fc1ccc(Cl)cc1-c1nc(Nc2ccncc2)c2nccnc2n1` [ONC0002569, sd208], which “% viability” value is on record?
Its value is 76.17%.
